Measurements taken from PMC4074815, “An Impermeant Ganetespib Analog Inhibits Extracellular Hsp90-Mediated Cancer Cell Migration that Involves Lysyl Oxidase 2-like Protein” (Cancers, 2014).
These are yes or no findings as the source states them, for the method shown. In cells and extracts the contact can be indirect. Some binding calls cover weakened binding; strength is not graded here.

Chains of the proteins cited; added tags and fusions are not shown. Residues count along the entry.
UniProt Q9Y4K0, residues 26-774: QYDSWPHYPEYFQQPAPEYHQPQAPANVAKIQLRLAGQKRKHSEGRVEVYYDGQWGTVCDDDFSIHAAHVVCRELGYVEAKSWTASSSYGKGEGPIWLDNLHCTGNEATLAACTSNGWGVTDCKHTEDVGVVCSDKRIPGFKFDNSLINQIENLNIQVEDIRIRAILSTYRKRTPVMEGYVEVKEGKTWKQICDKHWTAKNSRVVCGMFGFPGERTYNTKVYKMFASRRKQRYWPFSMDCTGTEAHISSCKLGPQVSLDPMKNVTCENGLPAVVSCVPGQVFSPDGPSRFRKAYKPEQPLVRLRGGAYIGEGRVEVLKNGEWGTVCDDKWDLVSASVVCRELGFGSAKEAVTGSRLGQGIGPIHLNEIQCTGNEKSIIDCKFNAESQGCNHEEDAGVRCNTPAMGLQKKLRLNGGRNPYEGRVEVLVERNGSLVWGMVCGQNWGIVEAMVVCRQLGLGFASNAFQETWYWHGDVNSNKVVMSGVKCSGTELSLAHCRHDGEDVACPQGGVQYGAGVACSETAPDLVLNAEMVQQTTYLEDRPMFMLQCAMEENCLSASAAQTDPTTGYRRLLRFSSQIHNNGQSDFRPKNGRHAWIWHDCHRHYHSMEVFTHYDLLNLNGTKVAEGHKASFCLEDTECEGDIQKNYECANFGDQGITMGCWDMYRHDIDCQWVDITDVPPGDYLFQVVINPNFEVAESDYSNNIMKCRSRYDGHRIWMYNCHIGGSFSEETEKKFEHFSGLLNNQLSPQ

Assays:
[1] = target: Lysyl Oxidase-like 2 precursor (human (endogenous in MDA-MB231)) (UniProt Q9Y4K0); experiment: co-IP; immunoprecipitation with anti-Hsp90 alpha or anti-LOXL2 (2.5 μg) from concentrated conditioned media of MDA-MB231 cells; washed with RIPA B buffer; Western blot
[2] = target: Heat Shock Protein 90 kDa alpha (cytosolic), class A member 1 isoform 2 (human (endogenous in MDA-MB231)) (UniProt P07900); experiment: as above

binding [1]	binding [2]	Substance
binds	–	Heat Shock Protein 90 kDa alpha (cytosolic), class A member 1 isoform 2 (from UniProt P07900 1-732)
–	binds	Lysyl Oxidase-like 2 precursor (from UniProt Q9Y4K0 26-774)
